# Data taken from ChEMBL document CHEMBL4513152, “CO-ADD screening of Yantai University (China) compounds”.
# The other results are listed elsewhere or left out. Potency and affinity values are given separately.
# System: Acinetobacter baumannii
# Details: Concentration 32 ug.mL-1; ASSAY_TEST Inhibition of Bacterial Growth; detection method Absorption (OD600); MEDIA CAMHB; plate type 384well; NBS; CORNING #3640; time 18 hr
row,Structure (SMILES),Inhibition
1,CC(=O)O[C@H]1C[C@@]2(C)C(C[C@@H](O)C3[C@@]4(C)CC[C@@H](OC(=O)c5ccccc5C(=O)OCCc5ccc(OCCO[N+](=O)[O-])cc5)[C@@H](C)C4CC[C@@]32C)/C1=C(\CCC=C(C)C)C(=O)OCc1ccccc1 (some centres undefined),-2.64%
2,CC(=O)O[C@H]1C[C@@]2(C)C(C[C@@H](O)C3[C@@]4(C)CC[C@@H](OC(=O)CO[N+](=O)[O-])[C@@H](C)C4CC[C@@]32C)/C1=C(\CCC=C(C)C)C(=O)OCc1ccccc1 (some centres undefined),-3.15%
3,CC(=O)O[C@H]1C[C@@]2(C)C(C[C@@H](O)C3[C@@]4(C)CC[C@@H](OC(=O)C(N)CC(C)C)[C@@H](C)C4CC[C@@]32C)/C1=C(\CCC=C(C)C)C(=O)OCc1ccccc1 (some centres undefined),-4.21%
4,CC(=O)O[C@H]1C[C@@]2(C)C(C[C@@H](O)C3[C@@]4(C)CC[C@@H](OC(=O)CCC(=O)OCCc5ccc(OCCO[N+](=O)[O-])cc5)[C@@H](C)C4CC[C@@]32C)/C1=C(\CCC=C(C)C)C(=O)OCc1ccccc1 (some centres undefined),-5.76%
5,CC(=O)O[C@H]1C[C@@]2(C)C(C[C@@H](O)C3[C@@]4(C)CC[C@@H](O)[C@@H](C)C4CC[C@@]32C)/C1=C(\CCC=C(C)C)C(=O)Oc1ccc(CCO[N+](=O)[O-])cc1 (some centres undefined),-8.95%
6,CC(=O)O[C@H]1C[C@@]2(C)C(C[C@@H](O)C3[C@@]4(C)CC[C@@H](OC(=O)c5ccccc5C(=O)Nc5cccc(N)c5)[C@@H](C)C4CC[C@@]32C)/C1=C(\CCC=C(C)C)C(=O)OCc1ccccc1 (some centres undefined),-7.67%
7,CC(=O)O[C@H]1C[C@@]2(C)C(C[C@@H](O)C3[C@@]4(C)CC[C@@H](OC(=O)CCCCO[N+](=O)[O-])[C@@H](C)C4CC[C@@]32C)/C1=C(\CCC=C(C)C)C(=O)OCc1ccccc1 (some centres undefined),-9.75%
8,CC(=O)O[C@H]1C[C@@]2(C)C(C[C@@H](O)C3[C@@]4(C)CC[C@@H](OC(=O)C(C)N)[C@@H](C)C4CC[C@@]32C)/C1=C(\CCC=C(C)C)C(=O)OCc1ccccc1 (some centres undefined),-17.87%
9,CC(=O)O[C@H]1C[C@@]2(C)C(C[C@@H](O)C3[C@@]4(C)CC[C@@H](OC(=O)C(N)C(C)C)[C@@H](C)C4CC[C@@]32C)/C1=C(\CCC=C(C)C)C(=O)OCc1ccccc1 (some centres undefined),-13.72%
10,CC(=O)O[C@H]1C[C@@]2(C)C(CC(=O)C3[C@@]4(C)CCC(=O)[C@@H](C)C4CC[C@@]32C)/C1=C(\CCC=C(C)C)C(=O)OCc1ccccc1 (some centres undefined),-9.49%
11,CC(=O)O[C@H]1C[C@@]2(C)C(C[C@@H](O)C3[C@@]4(C)CC[C@@H](O)[C@@H](C)C4CC[C@@]32C)/C1=C(\CCC=C(C)C)C(=O)OCc1ccccc1 (some centres undefined),-14.6%
12,CC(=O)O[C@H]1C[C@@]2(C)C(CC(=O)C3[C@@]4(C)CC[C@@H](OC(=O)CCCCCO[N+](=O)[O-])[C@@H](C)C4CC[C@@]32C)/C1=C(\CCC=C(C)C)C(=O)OCc1ccccc1 (some centres undefined),-6.19%
13,CC(=O)O[C@H]1C[C@@]2(C)C(C[C@@H](O)C3[C@@]4(C)CC[C@@H](OC(=O)CCC(=O)O)[C@@H](C)C4CC[C@@]32C)/C1=C(\CCC=C(C)C)C(=O)OCc1ccccc1 (some centres undefined),0.71%
14,CC(=O)O[C@H]1C[C@@]2(C)C(C[C@@H](O)C3[C@@]4(C)CC[C@@H](OC(=O)c5ccccc5C(=O)Oc5ccc(CCO[N+](=O)[O-])cc5)[C@@H](C)C4CC[C@@]32C)/C1=C(\CCC=C(C)C)C(=O)OCc1ccccc1 (some centres undefined),-8.2%
15,CC(=O)O[C@H]1C[C@@]2(C)C(C[C@@H](O)C3[C@@]4(C)CC[C@@H](OC(=O)c5ccccc5C(=O)Nc5ccc(N)cc5)[C@@H](C)C4CC[C@@]32C)/C1=C(\CCC=C(C)C)C(=O)OCc1ccccc1 (some centres undefined),-9.86%
16,CC(=O)O[C@H]1C[C@@]2(C)C(CC(=O)C3[C@@]4(C)CC[C@@H](OC(=O)CCCCO[N+](=O)[O-])[C@@H](C)C4CC[C@@]32C)/C1=C(\CCC=C(C)C)C(=O)OCc1ccccc1 (some centres undefined),-4.85%
17,CC(=O)O[C@H]1C[C@@]2(C)C(C[C@@H](O)C3[C@@]4(C)CC[C@@H](O)[C@@H](C)C4CC[C@@]32C)/C1=C(\CCC=C(C)C)C(=O)On1nnc2ccccc21 (some centres undefined),-4.42%
18,CC(=O)O[C@H]1C[C@@]2(C)C(C[C@@H](O)C3[C@@]4(C)CC[C@@H](OC(=O)CCCCCO[N+](=O)[O-])[C@@H](C)C4CC[C@@]32C)/C1=C(\CCC=C(C)C)C(=O)OCc1ccccc1 (some centres undefined),-6.35%
19,CC(=O)O[C@H]1C[C@@]2(C)C(C[C@@H](O)C3[C@@]4(C)CC[C@@H](OC(=O)CCC(=O)Oc5ccc(CCO[N+](=O)[O-])cc5)[C@@H](C)C4CC[C@@]32C)/C1=C(\CCC=C(C)C)C(=O)OCc1ccccc1 (some centres undefined),-2.18%

# Fetched one by one from above:
row,Structure (SMILES),Inhibition
13,CC(=O)O[C@H]1C[C@@]2(C)C(C[C@@H](O)C3[C@@]4(C)CC[C@@H](OC(=O)CCC(=O)O)[C@@H](C)C4CC[C@@]32C)/C1=C(\CCC=C(C)C)C(=O)OCc1ccccc1 (some centres undefined),0.71%
18,CC(=O)O[C@H]1C[C@@]2(C)C(C[C@@H](O)C3[C@@]4(C)CC[C@@H](OC(=O)CCCCCO[N+](=O)[O-])[C@@H](C)C4CC[C@@]32C)/C1=C(\CCC=C(C)C)C(=O)OCc1ccccc1 (some centres undefined),-6.35%
